Measurements reported in PubChem BioAssay AID489043 (National Center for Advancing Translational Sciences (NCATS), 2010).
The entries are a selection whose mix differs from that of the whole data set. Where no call is shown, the source filed none. Records with an inconclusive call do not appear. Calls of active or inactive are those of the source. Calls come from the whole dose curve; as a rule, active = well fitted activation curve with a large enough effect; inconclusive = small, poorly fitted or top-dose-only effect; inactive = flat fitted curve, though single readings scatter.

Sequences of proteins named here, by UniProt entry; tags and fusion partners are left off. A change or cut given only in a name is not applied to a line headed by its entry.
UniProt Q8WXD0: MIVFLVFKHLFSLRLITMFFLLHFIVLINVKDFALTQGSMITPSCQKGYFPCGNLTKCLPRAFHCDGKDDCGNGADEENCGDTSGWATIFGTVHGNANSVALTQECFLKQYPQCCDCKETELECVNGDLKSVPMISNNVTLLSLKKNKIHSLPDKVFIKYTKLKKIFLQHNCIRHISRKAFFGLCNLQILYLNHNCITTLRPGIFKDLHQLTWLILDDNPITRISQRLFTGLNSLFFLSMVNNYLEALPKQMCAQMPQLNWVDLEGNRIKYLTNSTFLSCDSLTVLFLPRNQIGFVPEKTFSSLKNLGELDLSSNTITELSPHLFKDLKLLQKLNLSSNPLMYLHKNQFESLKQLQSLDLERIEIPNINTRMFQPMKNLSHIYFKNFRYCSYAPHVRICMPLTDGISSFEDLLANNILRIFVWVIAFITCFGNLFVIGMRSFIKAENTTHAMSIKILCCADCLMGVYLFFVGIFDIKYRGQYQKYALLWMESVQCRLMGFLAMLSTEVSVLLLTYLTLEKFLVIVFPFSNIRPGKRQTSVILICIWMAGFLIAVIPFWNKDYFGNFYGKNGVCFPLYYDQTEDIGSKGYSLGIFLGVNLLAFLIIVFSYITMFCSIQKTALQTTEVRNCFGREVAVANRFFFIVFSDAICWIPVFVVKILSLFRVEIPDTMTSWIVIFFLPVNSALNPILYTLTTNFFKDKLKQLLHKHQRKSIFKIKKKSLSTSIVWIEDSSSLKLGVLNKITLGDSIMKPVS

Molecular target: Relaxin receptor 2 (Homo sapiens) (UniProt Q8WXD0)
Assay: qHTS Assay for Agonists of the Relaxin Receptor RXFP1: RXFP2 Hit Validation; note: nearly all actives have a fitted effect of over 65% in size;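 for activation: 0% = buffer only basal cAMP and 100% = 29 nM porcine relaxin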
Conditions: HEK293 RXFP2 cAMP TR-FRET, 30 min; activation: at 115 µM (top of the series)
Source text: NIH Chemical Genomics Center [NCGC] NIH Molecular Libraries Probe Production Centers Network [MLPCN] MLPCN Grant: R03 MH085705-01A1 Assay Submitter (PI): Alexander Agoulnik NCGC Assay Overview: The relaxin hormone is involved in the variety of biological functions in normal tissues and diseases. The role of relaxin is well-established in female reproduction and parturition, mammary gland and endometrial development, maintenance of myometrial quiescence during pregnancy. Relaxin signaling through its G protein-coupled receptor (GPCR) RXFP1 results in ECM remodeling through regulation of collagen deposition, cell invasiveness, proliferation and overall tissue homeostasis. […] RXFP1 activation was assayed by changes in cAMP levels as detected with a time-resolved fluorescence energy transfer (TR-FRET) cAMP detection kit. […]
NCGC Assay Protocol Summary: This is a cell-based assay for cAMP second messenger response to screen for agonists of the RXFP2 receptor. […] The cells were lysed and the cAMP levels were measured with a TR-FRET cAMP kit. […] The EC50 values were determined from concentration-response data modeled with the standard Hill equation 1536-well assay protocol for the HEK293 RXFP2 cAMP assay: (1) Add 3 ul HEK293 RXFP2 cell culture. […]
Potency is the fitted concentration of half-maximal effect.

COc1ccc(-n2nc(C(=O)NCC(=O)NCCCN3CCOCC3)c3ccccc3c2=O)cc1
activation: 47.2%

Cc1cc(C)n2nc(C(=O)Nc3ccc4c(c3)OCCO4)nc2n1
Potency: active: 6.9 µM
